# PubChem BioAssay AID686943 | Drosophila RNAi Screening Center – 2013
# Assay: 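Fly genes whose loss alters ERK activation after insulin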 (primary screen)
# Cells: Drosophila S2R+ haemocyte-like cells expressing YFP-tagged ERK (Rolled)
# Reagent: long dsRNA against Drosophila genes
# Treatment: insulin stimulation versus unstimulated cells; dose and duration not given
# Measured: 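Per-plate z-scores of phospho-ERK immunostaining normalised to YFP-tagged ERK, measured with and without insulin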
# Direction: replicate 1, z-score of dpERK with insulin and replicate 2, z-score of dpERK with insulin: higher = more active ERK per ERK-YFP after insulin
# The deposit covers about 23,000 reagents; this is a random part of those that have a named target and a result. 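Extra replicates exist only for a retested subset of genes; insulin dose and duration not given; both raised and lowered dpERK matter.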 Names joined by + are all predicted targets of the reagent. Not all columns of the deposit are shown. The record does not give: the amount of reagent, the time to read-out.
Gene,amplicon,"replicate 1, z-score of dpERK with insulin","replicate 2, z-score of dpERK with insulin"
CG7168,DRSC16208,0.32,0.36
CG3829,DRSC04423,0.49,-0.03
mnd,DRSC11370,-1.04,-2.3
CG42346,DRSC20622,2.31,0.72
CG42346,DRSC20644,0.12,-0.09
Rs1,DRSC05945,0.85,0.59
CG5756,DRSC06950,0.19,0.7
oaf,DRSC00831,-0.53,-0.26
CG11825,DRSC06090,-0.05,-0.14
Dhdds,DRSC17756,0.66,0
CG31122,DRSC14787,-4.83,-4.22
CG31122,DRSC16286,0.28,0.14
TfIIEbeta,DRSC08701,1.8,1.13
CG8010,DRSC20072,0.86,0.66
Cdc6,DRSC10563,-0.12,-0.57
Fer1,DRSC12507,-1.02,1.1
Fer1,DRSC12555,-1.06,-1.15
CG13428,DRSC06390,0.24,0.97
CG5139,DRSC00681,-0.18,-0.66
Ddx56,DRSC20567,-0.77,-0.88
eIF3c,DRSC06905,-1.3,-0.6
CG17625,DRSC15249,0.2,0
CG12239,DRSC17832,-0.14,-0.17
CG17207,DRSC15198,0,0.81
sei,DRSC04713,-0.24,0.37
CG8112,DRSC16377,-0.01,-0.29
bam,DRSC16907,0.62,-0.04

Sorted by “replicate 1, z-score of dpERK with insulin” (highest first): some entries from above
Gene,amplicon,"replicate 1, z-score of dpERK with insulin","replicate 2, z-score of dpERK with insulin"
TfIIEbeta,DRSC08701,1.8,1.13
CG8010,DRSC20072,0.86,0.66
CG31122,DRSC16286,0.28,0.14
CG13428,DRSC06390,0.24,0.97
CG17625,DRSC15249,0.2,0
Cdc6,DRSC10563,-0.12,-0.57
CG12239,DRSC17832,-0.14,-0.17
CG5139,DRSC00681,-0.18,-0.66
Ddx56,DRSC20567,-0.77,-0.88
Fer1,DRSC12507,-1.02,1.1
Fer1,DRSC12555,-1.06,-1.15
eIF3c,DRSC06905,-1.3,-0.6

Further results:
Gene,amplicon,"replicate 1, z-score of dpERK with insulin","replicate 2, z-score of dpERK with insulin"
moody,DRSC18515,1.04,0.32
CG43902,DRSC17850,0.26,0.57
CG43902,DRSC17999,-2.49,-2.73
CG7720,DRSC16306,-0.17,1.17
CG7720,DRSC16307,0.63,1.36
Cdc50,DRSC20224,-0.2,0.33
CG16959,DRSC10230,-0.2,0.41
CG43085,DRSC09497,-0.84,-0.39
CG9389,DRSC11857,0.3,-0.12
Fer3,DRSC16133,0.29,0.22
CG1835,DRSC20560,0.24,-0.06
Neu2,DRSC11819,1.53,1.09
CR40450 + CG32767,DRSC18387,-0.93,-1.25
Or94b,DRSC16773,-0.85,0
CG8630,DRSC16441,0.52,0.16
CG12617,DRSC02176,0.71,0.15
Ssb-c31a,DRSC03443,-0.11,0.53
CG4660,DRSC18378,-0.17,-0.13
CG7126,DRSC16201,0.32,0.41
Ilp8,DRSC10076,-1.92,-0.05
Nt5a,DRSC08561,0.7,0.61
Msr-110,DRSC11227,0.35,0.26
CG31626 + CG8677,DRSC21844,1.2,0.91
CG6901,DRSC16129,-0.09,0.18
CG14142,DRSC10145,-0.78,0.28
escl,DRSC02828,0.9,1.41
ari-2,DRSC04672,2.72,1.04
pho,DRSC17219,-0.33,-0.17
m,DRSC20181,-0.07,0.31
Arms,DRSC03856,-0.23,2.18
Arms,DRSC03857,0,0.39
Arms,DRSC04052,0.54,0.33
Arms,DRSC04256,-6.7,-6.16
CG11865,DRSC01872,-0.3,0.33
CG4596,DRSC15608,-0.71,-0.08
AnxB9,DRSC14111,0.08,-0.4
Tgi,DRSC09793,1.02,-0.21
Tgi,DRSC09794,0.39,0.22
chas,DRSC19508,0.58,0.06
chas,DRSC19509,0.45,0.31
Lsd-2,DRSC20143,0.99,0.35
Hsf,DRSC07443,-0.04,0.46
Ugt35E2,DRSC16083,0.39,0.1
Synd,DRSC15116,-1.07,0.24
CG4839,DRSC02783,-0.06,-0.62
CG4839,DRSC02784,0.77,0.28
